From PubChem BioAssay AID188 (DTP/NCI, 2004)
Values are animals surviving of animals treated; these mice carried no tumour. Survivors were counted at the toxicity check, usually on the fifth day, unless a day is given; later deaths do not show. Schedule codes are those of the source, read here as Q, the interval in days (D) or hours (H), X, the number of doses. Some structures stand for samples that the source files as different forms (salt, stereo form or complex); doses refer to the form tested. Marks such as (2×) give the number of equal values in this list. Some entries hold several experiments; their values stand side by side, smallest first.

Test system: CD2F1 mice, nontumored, toxicity/survival
Assay: NCI In Vivo Anticancer Drug Screen. Data for tumor model Nontumored Animals (Toxicity Test) in CD2F1 (CDF1) mice

Structure (SMILES): COc1cc(NS(C)(=O)=O)ccc1Nc1c2ccccc2nc2ccccc12
- survivor count (dose: 8.0 mg/kg/injection, schedule: Q01DX009 (oral), vehicle: saline): 8 of 8 (2×)
- survivor count (dose: 8.0 mg/kg/injection, schedule: Q01DX009 (sc), vehicle: other): 8 of 8 (2×)
- survivor count (dose: 8.0 mg/kg/injection, schedule: Q01DX009 (sc), vehicle: saline): 8 of 8 (2×)
- survivor count (dose: 8.0 mg/kg/injection, schedule: Q03HX008 (ip), vehicle: other): 0 of 8 (2×)
- survivor count (dose: 8.0 mg/kg/injection, schedule: Q03HX008 (ip), vehicle: saline): 4 of 8 and 7 of 8
- survivor count (dose: 8.0 mg/kg/injection, schedule: Q03HX016 (ip), vehicle: other): 3 of 8 (2×)
- survivor count (dose: 8.0 mg/kg/injection, schedule: Q03HX016 (ip), vehicle: saline): 7 of 8 (2×)
- survivor count (dose: 8.0 mg/kg/injection, schedule: Q03HX024 (ip), vehicle: saline): 6 of 8
- survivor count (dose: 8.0 mg/kg/injection, schedule: Q04DX003 (ip), vehicle: other): 4 of 4, 5 of 5, 8 of 8 (2×)
- survivor count (dose: 8.0 mg/kg/injection, schedule: Q04DX003 (ip), vehicle: saline): 7 of 8 and 8 of 8
- survivor count (dose: 8.0 mg/kg/injection, schedule: Q08DX002 (ip), vehicle: other): 8 of 8 (2×)
- survivor count (dose: 8.0 mg/kg/injection, schedule: Q08DX002 (ip), vehicle: saline): 8 of 8
- survivor count (dose: 16.0 mg/kg/injection, schedule: Q01DX001 (ip), vehicle: other): 8 of 8 (2×)
- survivor count (dose: 16.0 mg/kg/injection, schedule: Q01DX001 (ip), vehicle: saline): 8 of 8 (2×)
- survivor count (dose: 16.0 mg/kg/injection, schedule: Q01DX001 (oral), vehicle: other): 8 of 8 (2×)
- survivor count (dose: 16.0 mg/kg/injection, schedule: Q01DX001 (sc), vehicle: other): 8 of 8 (2×)
- survivor count (dose: 16.0 mg/kg/injection, schedule: Q01DX001 (sc), vehicle: saline): 8 of 8 (2×)
- survivor count (dose: 16.0 mg/kg/injection, schedule: Q01DX009 (ip), vehicle: other): 4 of 8 (2×)
- survivor count (dose: 16.0 mg/kg/injection, schedule: Q01DX009 (ip), vehicle: saline): 7 of 8 and 8 of 8
- survivor count (dose: 16.0 mg/kg/injection, schedule: Q01DX009 (oral), vehicle: other): 8 of 8 (2×)
- survivor count (dose: 16.0 mg/kg/injection, schedule: Q01DX009 (oral), vehicle: saline): 8 of 8 (2×)
- survivor count (dose: 16.0 mg/kg/injection, schedule: Q01DX009 (sc), vehicle: other): 7 of 8 (2×)
- survivor count (dose: 16.0 mg/kg/injection, schedule: Q01DX009 (sc), vehicle: saline): 8 of 8 (2×)
- survivor count (dose: 16.0 mg/kg/injection, schedule: Q03HX008 (ip), vehicle: other): 0 of 8 (2×)
- survivor count (dose: 16.0 mg/kg/injection, schedule: Q03HX008 (ip), vehicle: saline): 0 of 8 and 6 of 8
- survivor count (dose: 16.0 mg/kg/injection, schedule: Q03HX016 (ip), vehicle: other): 0 of 8 (2×)
- survivor count (dose: 16.0 mg/kg/injection, schedule: Q03HX016 (ip), vehicle: saline): 5 of 8
- survivor count (dose: 16.0 mg/kg/injection, schedule: Q03HX024 (ip), vehicle: saline): 2 of 8
- survivor count (dose: 16.0 mg/kg/injection, schedule: Q04DX003 (ip), vehicle: other): 0 of 2, 3 of 4, 8 of 8 (2×)
- survivor count (dose: 16.0 mg/kg/injection, schedule: Q04DX003 (ip), vehicle: saline): 8 of 8 (2×)
- survivor count (dose: 16.0 mg/kg/injection, schedule: Q08DX002 (ip), vehicle: other): 8 of 8 (2×)
- survivor count (dose: 16.0 mg/kg/injection, schedule: Q08DX002 (ip), vehicle: saline): 8 of 8 (2×)
- survivor count (dose: 32.0 mg/kg/injection, schedule: Q01DX001 (ip), vehicle: other): 4 of 8 (2×)
- survivor count (dose: 32.0 mg/kg/injection, schedule: Q01DX001 (ip), vehicle: saline): 8 of 8 (2×)
- survivor count (dose: 32.0 mg/kg/injection, schedule: Q01DX001 (oral), vehicle: other): 8 of 8 (2×)
- survivor count (dose: 32.0 mg/kg/injection, schedule: Q01DX001 (oral), vehicle: saline): 8 of 8
- survivor count (dose: 32.0 mg/kg/injection, schedule: Q01DX001 (sc), vehicle: other): 8 of 8 (2×)
- survivor count (dose: 32.0 mg/kg/injection, schedule: Q01DX001 (sc), vehicle: saline): 8 of 8 (2×)
- survivor count (dose: 32.0 mg/kg/injection, schedule: Q01DX009 (oral), vehicle: other): 8 of 8 (2×)
- survivor count (dose: 32.0 mg/kg/injection, schedule: Q01DX009 (oral), vehicle: saline): 8 of 8 (2×)
- survivor count (dose: 32.0 mg/kg/injection, schedule: Q03HX008 (ip), vehicle: saline): 0 of 8
- survivor count (dose: 32.0 mg/kg/injection, schedule: Q03HX016 (ip), vehicle: saline): 2 of 8
- survivor count (dose: 32.0 mg/kg/injection, schedule: Q04DX003 (ip), vehicle: other): 6 of 8 (2×)
- survivor count (dose: 32.0 mg/kg/injection, schedule: Q04DX003 (ip), vehicle: saline): 8 of 8 (2×)
- survivor count (dose: 32.0 mg/kg/injection, schedule: Q08DX002 (ip), vehicle: other): 5 of 8 (2×)
- survivor count (dose: 32.0 mg/kg/injection, schedule: Q08DX002 (ip), vehicle: saline): 8 of 8 (2×)
- survivor count (dose: 64.0 mg/kg/injection, schedule: Q01DX001 (ip), vehicle: other): 1 of 8 (2×)
- survivor count (dose: 64.0 mg/kg/injection, schedule: Q01DX001 (ip), vehicle: saline): 8 of 8 (2×)
- survivor count (dose: 64.0 mg/kg/injection, schedule: Q01DX001 (oral), vehicle: other): 8 of 8 (2×)
- survivor count (dose: 64.0 mg/kg/injection, schedule: Q01DX001 (oral), vehicle: saline): 8 of 8 (2×)
- survivor count (dose: 64.0 mg/kg/injection, schedule: Q01DX001 (sc), vehicle: other): 8 of 8 (2×)
- survivor count (dose: 64.0 mg/kg/injection, schedule: Q01DX001 (sc), vehicle: saline): 8 of 8 (2×)
- survivor count (dose: 64.0 mg/kg/injection, schedule: Q01DX009 (oral), vehicle: other): 4 of 8 (2×)
- survivor count (dose: 64.0 mg/kg/injection, schedule: Q01DX009 (oral), vehicle: saline): 7 of 8 and 8 of 8
- survivor count (dose: 64.0 mg/kg/injection, schedule: Q04DX003 (ip), vehicle: saline): 8 of 8
- survivor count (dose: 64.0 mg/kg/injection, schedule: Q08DX002 (ip), vehicle: other): 1 of 8 (2×)
- survivor count (dose: 64.0 mg/kg/injection, schedule: Q08DX002 (ip), vehicle: saline): 8 of 8 (2×)
- survivor count (dose: 128.0 mg/kg/injection, schedule: Q01DX001 (ip), vehicle: other): 0 of 8 (2×)
- survivor count (dose: 128.0 mg/kg/injection, schedule: Q01DX001 (ip), vehicle: saline): 7 of 8 and 8 of 8
- survivor count (dose: 128.0 mg/kg/injection, schedule: Q01DX001 (oral), vehicle: other): 8 of 8 (2×)
- survivor count (dose: 128.0 mg/kg/injection, schedule: Q01DX001 (oral), vehicle: saline): 8 of 8 (2×)
- survivor count (dose: 128.0 mg/kg/injection, schedule: Q01DX001 (sc), vehicle: other): 6 of 8 (2×)
- survivor count (dose: 128.0 mg/kg/injection, schedule: Q01DX001 (sc), vehicle: saline): 8 of 8 (2×)
- survivor count (dose: 128.0 mg/kg/injection, schedule: Q04DX003 (ip), vehicle: saline): 7 of 8
- survivor count (dose: 128.0 mg/kg/injection, schedule: Q08DX002 (ip), vehicle: other): 0 of 8 (2×)
- survivor count (dose: 128.0 mg/kg/injection, schedule: Q08DX002 (ip), vehicle: saline): 8 of 8
- survivor count (dose: 256.0 mg/kg/injection, schedule: Q01DX001 (ip), vehicle: saline): 8 of 8
- survivor count (dose: 256.0 mg/kg/injection, schedule: Q01DX001 (oral), vehicle: other): 1 of 8 (2×)
- survivor count (dose: 256.0 mg/kg/injection, schedule: Q01DX001 (oral), vehicle: saline): 6 of 8 and 8 of 8
- survivor count (dose: 256.0 mg/kg/injection, schedule: Q01DX001 (sc), vehicle: saline): 8 of 8
- survivor count (dose: 256.0 mg/kg/injection, schedule: Q08DX002 (ip), vehicle: saline): 5 of 8
- survivor count (dose: 512.0 mg/kg/injection, schedule: Q01DX001 (oral), vehicle: other): 0 of 8 (2×)
- survivor count (dose: 512.0 mg/kg/injection, schedule: Q01DX001 (oral), vehicle: saline): 4 of 8 and 8 of 8
- survivor count (dose: 1024.0 mg/kg/injection, schedule: Q01DX001 (oral), vehicle: saline): 3 of 8
